From US20120142088
At least one result comes from cells or an extract, where the contact may be indirect. Negatives hold for the conditions tested. Protein sequences can lack the tags named with them. For at least one entry, the source does not settle the construct or the ends of the probe.

Target: T1, PTK7 (protein tyrosine kinase 7) (UniProt Q13308)
T1 sequence (looked up, limits assumed): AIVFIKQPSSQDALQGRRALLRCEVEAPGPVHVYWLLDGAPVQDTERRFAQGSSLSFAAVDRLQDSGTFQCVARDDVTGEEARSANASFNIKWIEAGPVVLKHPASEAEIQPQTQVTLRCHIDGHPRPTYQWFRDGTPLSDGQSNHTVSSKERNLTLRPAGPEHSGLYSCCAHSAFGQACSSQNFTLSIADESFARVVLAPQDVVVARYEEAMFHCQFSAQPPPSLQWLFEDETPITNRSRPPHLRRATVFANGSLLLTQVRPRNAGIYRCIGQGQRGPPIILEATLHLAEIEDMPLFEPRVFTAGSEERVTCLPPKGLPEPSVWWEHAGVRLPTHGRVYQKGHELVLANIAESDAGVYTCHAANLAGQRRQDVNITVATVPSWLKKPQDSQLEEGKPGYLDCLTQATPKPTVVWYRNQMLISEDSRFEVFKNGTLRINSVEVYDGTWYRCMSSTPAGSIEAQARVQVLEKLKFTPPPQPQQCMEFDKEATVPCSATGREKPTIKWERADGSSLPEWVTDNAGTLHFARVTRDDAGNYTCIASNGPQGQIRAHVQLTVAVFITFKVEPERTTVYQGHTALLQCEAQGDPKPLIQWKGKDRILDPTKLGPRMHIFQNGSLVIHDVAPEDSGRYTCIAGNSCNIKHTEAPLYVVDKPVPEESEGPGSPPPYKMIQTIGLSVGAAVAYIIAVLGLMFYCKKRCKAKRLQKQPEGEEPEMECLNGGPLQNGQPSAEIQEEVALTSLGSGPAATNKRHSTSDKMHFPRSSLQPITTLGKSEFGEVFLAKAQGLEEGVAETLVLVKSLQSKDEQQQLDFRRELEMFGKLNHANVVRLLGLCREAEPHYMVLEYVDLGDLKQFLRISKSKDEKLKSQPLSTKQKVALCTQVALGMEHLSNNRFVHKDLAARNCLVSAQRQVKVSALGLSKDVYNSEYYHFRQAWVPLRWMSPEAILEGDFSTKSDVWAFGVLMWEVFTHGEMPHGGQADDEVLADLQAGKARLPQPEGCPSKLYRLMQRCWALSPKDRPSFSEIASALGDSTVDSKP
Experiment: flow cytometry
Settings: 5'-amine converted to N,N-diethyl-N'-acyl phenylene diamine, 37 C, 30-60 min, culture media, protein on the cell surface, protein details: endogenous on Jurkat T leukemia cells, label: Alexa Fluor 488 on capsid interior, single-stranded DNA

Sequence | binding result (coupled to MS2 capsid exterior, capsid-displayed control strand on Jurkat cells, no increase in mean fluorescence) | binding result (coupled to MS2-paF19-N87C capsid exterior (20-40 copies per capsid), capsid-displayed aptamer (11 nM capsids) on Jurkat cells, target assigned as PTK7 from prior work, internalized, co-localizes with LDL)
CCCTAGAGTGAGTCGTATGACCCTAGAGTGAGTCGTATGAA [strand C (41-nt randomized control)] | no binding | 
ATCTAACTGCTGCGCCGCCGGGAAAATACTGTACGGTTAGA [strand B (sgc8c aptamer)] |  | binds
